In article PMC7819943, “Rice protein-binding microarrays: a tool to detect cis-acting elements near promoter regions in rice”:
Some of the results follow.

Chains of the proteins cited; added tags and fusions are not shown.
UniProt Q0JBA9, entry or part of it: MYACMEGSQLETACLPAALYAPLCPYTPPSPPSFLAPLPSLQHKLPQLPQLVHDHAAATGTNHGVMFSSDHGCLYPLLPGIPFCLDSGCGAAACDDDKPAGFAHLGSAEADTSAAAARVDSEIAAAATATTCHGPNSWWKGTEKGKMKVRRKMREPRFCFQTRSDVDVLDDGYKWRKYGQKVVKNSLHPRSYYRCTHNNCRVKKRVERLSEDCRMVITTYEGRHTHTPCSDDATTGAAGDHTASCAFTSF

biological target: OsWRKY34 (Oryza sativa, UniProt Q0JBA9 1-250); test: protein-binding microarray (RPBM); PBS, 2% BSA, 51.3 ng/ul salmon testes DNA, 50 uM zinc acetate, 200 nM TF, 25 C, 1 h; high values mean tight binding; settings: protein: recombinant; tags: N-terminal polyhistidine and DsRed monomer fusion (pET32a); label: CyDye5-dUTP incorporated in the synthesized complementary strand; 3' TTTTT single-stranded linker to array surface; dsDNA, one strand shown
Procedure, shortened: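 Per-feature fluorescence intensity (arbitrary units), read on an Axon 4000B scanner, is the binding signal. Transcription factors carrying an N-terminal polyhistidine tag and DsRed fusion were expressed in E. coli BL21-CodonPlus and purified on Ni–NTA. A custom Agilent array, made double-stranded by primer extension with Cy5-dUTP and blocked with 2% BSA, was incubated with 200 nM protein in PBS, 2% BSA, salmon testes DNA and 50 µM zinc acetate at 25 °C for 1 h and then washed.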

Row | Sequence | binding signal
1 | AGTTCCCAGCTTTCTCTTCCCATTTCGATTGCGGCCATCTCGGAGTCACCTAGTGCAG | 8360 fluorescence intensity (a.u.)
2 | ACCGCGCGTGCTCAGTCGTACTAGAACCAAATCACACTCTCGGAGTCACCTAGTGCAG | 9060 fluorescence intensity (a.u.)
3 | ATTCTCTTCTGTTCTTGGATAGATATCCATCCGATCCGACCGGAGTCACCTAGTGCAG | 8060 fluorescence intensity (a.u.)
4 | AAACATTCGAAATTACACACTTACACCTTCTACCTCTGCTCGGAGTCACCTAGTGCAG | 8192 fluorescence intensity (a.u.)
5 | ACACATTCTCTCTCTCACTCACTCACTCTTCCTCTCTCTCCGGAGTCACCTAGTGCAG | 8320 fluorescence intensity (a.u.)
6 | CTGGGTTCGTATCTTCATTGGGCTGCGATTTTCTCGATACCGGAGTCACCTAGTGCAG | 11300 fluorescence intensity (a.u.)
7 | ATCTACCTACTTTATGTCTGCACCCGAATTTTTGGGACTTCGGAGTCACCTAGTGCAG | 8720 fluorescence intensity (a.u.)
8 | CGCCGCCGCCTCGCGCCATCGCCAACGCCGTCCCCGTCACCGGAGTCACCTAGTGCAG | 9320 fluorescence intensity (a.u.)
9 | ACACATTTCCCCATGCACATCTCCCTCAATCTCTCTCTCTCGGAGTCACCTAGTGCAG | 8750 fluorescence intensity (a.u.)
10 | TTCTGCCCTGACTATCATAGCCACATCTCCATAATAGACACGGAGTCACCTAGTGCAG | 9920 fluorescence intensity (a.u.)
11 | TCTCCTCATCATCCGAGTCGTCATCATCATCGTCGTCGTCCGGAGTCACCTAGTGCAG | 8940 fluorescence intensity (a.u.)
12 | TTTGCTTGGCCTAGGGTTTGGTGGATTTGCGTCCCTGTGACGGAGTCACCTAGTGCAG | 8960 fluorescence intensity (a.u.)
13 | ACTTAAGTACTGCCTAATAAACACACAGCGGCAAAATTGACGGAGTCACCTAGTGCAG | 8120 fluorescence intensity (a.u.)
14 | GTGCAATAACCATTTCCTCTTTTTCCCTGATGTATTAACTCGGAGTCACCTAGTGCAG | 9380 fluorescence intensity (a.u.)
15 | CTGGTATTTTTATTTTTCTCATGATGGGTTTATAATTTTACGGAGTCACCTAGTGCAG | 9760 fluorescence intensity (a.u.)
16 | GTCACATTGTTGTTTCGGTACTCAAATTGCATTCCTCTGACGGAGTCACCTAGTGCAG | 8980 fluorescence intensity (a.u.)
17 | CGTCTCATTTTAAGTACAATTGTGGATTTCTGTGTCTAACCGGAGTCACCTAGTGCAG | 10400 fluorescence intensity (a.u.)
18 | GATTGTCATTTTCTCATTTTCTTTTATTTCCGGAATCTTTCGGAGTCACCTAGTGCAG | 8910 fluorescence intensity (a.u.)
19 | ATGATCATAGCCATTTTTCCTCGCTTTAAATATTTGCTACCGGAGTCACCTAGTGCAG | 8490 fluorescence intensity (a.u.)
20 | ACCGCTCATCTCCACTCTCCACTACTCCAGATCTTGACATCGGAGTCACCTAGTGCAG | 8320 fluorescence intensity (a.u.)
21 | AGGGTAGTGAGTCTTTTGGTTGGAGTGGAGTTGTGTAGCACGGAGTCACCTAGTGCAG | 8570 fluorescence intensity (a.u.)

Given in CSV form: part of the list above.
Row,Sequence,binding signal
17,CGTCTCATTTTAAGTACAATTGTGGATTTCTGTGTCTAACCGGAGTCACCTAGTGCAG,10400 fluorescence intensity (a.u.)
18,GATTGTCATTTTCTCATTTTCTTTTATTTCCGGAATCTTTCGGAGTCACCTAGTGCAG,8910 fluorescence intensity (a.u.)

(further entries)

Row | Sequence | binding signal
22 | GTGATGTTTGATCTTGTTCTTGTTGTTGTTGTTGTGGATGCGGAGTCACCTAGTGCAG | 8090 fluorescence intensity (a.u.)
23 | GTACTACTAGCTTGTCCAAGACTCGAGCCACTATATAAACCGGAGTCACCTAGTGCAG | 8080 fluorescence intensity (a.u.)
24 | ATATGTCGCCCTGCCATCTCATCCGCCCTACTACATCCGTCGGAGTCACCTAGTGCAG | 12700 fluorescence intensity (a.u.)
25 | CCGACCGTCACTTGCATTGTCCTCGTCCTCCGCCATCGACCGGAGTCACCTAGTGCAG | 9350 fluorescence intensity (a.u.)
26 | GGCATCCCACTCCCAACGTATTTTCACACGCAACTATTTTCGGAGTCACCTAGTGCAG | 8540 fluorescence intensity (a.u.)
27 | TGTGGTGGGGCATGAGCAGTTCTTTTGTTTAGAATGTTTACGGAGTCACCTAGTGCAG | 11900 fluorescence intensity (a.u.)
28 | CGGTCTACCCATGTCTATCAAGTATCAACTGGCCATTGACCGGAGTCACCTAGTGCAG | 9960 fluorescence intensity (a.u.)
29 | CAGCCTCGATGACTCCATTTTCCCTGGCGGCGCCGCACCGCGGAGTCACCTAGTGCAG | 10300 fluorescence intensity (a.u.)
30 | AAAAAGTCAACGGCGTCATATATTAAAATATGGAGAGAGTCGGAGTCACCTAGTGCAG | 8150 fluorescence intensity (a.u.)
31 | ACTCGCCGTCGCCCACCCCTTCCGCTTTCCGCCGCCGCCGCGGAGTCACCTAGTGCAG | 9760 fluorescence intensity (a.u.)
32 | GTCCACGACCACTCTACGGCGCCCCATGCGCGTCCTGCGGCGGAGTCACCTAGTGCAG | 8260 fluorescence intensity (a.u.)
33 | GCAACACCACTCCGTCTGCCTCCGTCAACGCTCCACCATTCGGAGTCACCTAGTGCAG | 9500 fluorescence intensity (a.u.)
34 | GCCGCATCTTCTCGTTCTTCCTCACCCACAGCGTCTTCGTCGGAGTCACCTAGTGCAG | 9320 fluorescence intensity (a.u.)
35 | ACGCAATTTTTCACCCTGGGTTGCCACTTTGGCATGCTACCGGAGTCACCTAGTGCAG | 8640 fluorescence intensity (a.u.)
36 | TGAAAGGGGTTGATGTGTGGTGAAGGGTAGGTAATTTGTACGGAGTCACCTAGTGCAG | 10700 fluorescence intensity (a.u.)
37 | AATCTCACCCACAAGCATATCTCTCGCACCATTCCACCCTCGGAGTCACCTAGTGCAG | 9100 fluorescence intensity (a.u.)
38 | ATCTCTGACCTATATTCTCTGGTCATTGGCCGTGTACATCCGGAGTCACCTAGTGCAG | 8990 fluorescence intensity (a.u.)
39 | TGCTCTAGTGTCCAATTGTGCTGCAGCCCTGTCTGACCTTCGGAGTCACCTAGTGCAG | 10400 fluorescence intensity (a.u.)
40 | TTTCTTCCTCTGCTTCTTGGTTAGAACGCTCATGCTAGTTCGGAGTCACCTAGTGCAG | 10500 fluorescence intensity (a.u.)
41 | TCTCTCTCTCTCTCTCTCTCTCTCTCTTCTCTTCTCTCATCGGAGTCACCTAGTGCAG | 10300 fluorescence intensity (a.u.)
42 | GCAATCAACACACTTGTTGTGACCATACGTACCTCTTTGCCGGAGTCACCTAGTGCAG | 9410 fluorescence intensity (a.u.)
